# The list is a part of this screen's results and no random one: it is rich in T/C values a quarter to a half above the control, in often repeated tests (any T/C) and in doses without a T/C. Other doses and runs of a compound stand elsewhere. T/C is the treated group as % of the vehicle group. Some doses have a count of surviving animals in place of a T/C: the source holds a T/C of zero for them, seemingly a mark for toxic or unscored doses. Some survivor counts are full or nearly so, which does not show that the dose was tolerated: survival well below the control is almost never listed, so the zero probably covers shortened survival too. Survivors were counted at the toxicity check, usually on the fifth day, unless a day is given; later deaths do not show. Schedule codes are those of the source, taken here to give the interval after Q, in days (D) or hours (H), and the number of doses after X. Some entries hold several experiments; the results are listed from low to high. Signs of the kind (2×) stand for listed records that agree. Where survival is the endpoint, the PubChem record calls one and a half times the control and up active, and a quarter to a half above the control has no call in these data; cut-offs in other NCI protocols can differ. Some T/C values are followed by the survivors on the day toxicity was checked, most often the fifth; where none is given, no animal had died by that day.
# Test system: P388 leukemia ip, CD2F1 mice, survival T/C
# Assay: NCI In Vivo Anticancer Drug Screen. Data for tumor model P388 Leukemia (intraperitoneal) in CD2F1 (CDF1) mice
# Details: T/C endpoint: median survival time, higher T/C = longer survival
# [1] = dose: 100.0 mg/kg/injection, schedule: Q01DX005 (ip), vehicle: distilled water + Tween-80
# [2] = dose: 200.0 mg/kg/injection, schedule: Q01DX005 (ip), vehicle: saline with Tween-80
smiles,measurement,setting,value
CCN(CC)CCNc1ccc(C)c2sc3ccccc3c(=O)c12,T/C,"dose: 6.25 mg/kg/injection, schedule: Q01DX005 (ip), vehicle: water, evaluated on day 20",101 % of control
same,T/C,"dose: 6.25 mg/kg/injection, schedule: Q01DX005 (ip), vehicle: water, evaluated on day 30","95, 96, 97, 98 (2×), 99, 100 (5×), 101 (2×), 102 (6×), 104 (4×), 105 (5×), 106 (2×), 107 (2×), 108 (5×), 109, 111, 112 % of control"
same,T/C,"dose: 6.25 mg/kg/injection, schedule: Q01DX005 (ip), vehicle: water, evaluated on day 35","102, 104 (2×), 124 % of control"
same,T/C,"dose: 6.25 mg/kg/injection, schedule: Q01DX005 (ip), vehicle: water, evaluated on day 40",100 % of control
same,T/C,"dose: 6.25 mg/kg/injection, schedule: Q01DX005 (ip), vehicle: water, evaluated on day 45",99 % of control
same,T/C,"dose: 6.25 mg/kg/injection, schedule: Q01DX005 (ip), vehicle: water, evaluated on day 50",112 % of control
same,T/C,"dose: 12.5 mg/kg/injection, schedule: Q01DX005 (ip), vehicle: water, evaluated on day 20",100 % of control
same,T/C,"dose: 12.5 mg/kg/injection, schedule: Q01DX005 (ip), vehicle: water, evaluated on day 30","89, 95, 97 (2×), 98 [5 of 6 alive], 99 (3×), 100 (4×), 102 (4×), 103, 104 (3×), 105 (3×), 106 (3×), 106 [5 of 6 alive], 107 (2×), 108 (3×), 109 (2×), 110, 111 (3×), 112, 113, 115 % of control"
same,T/C,"dose: 12.5 mg/kg/injection, schedule: Q01DX005 (ip), vehicle: water, evaluated on day 35","104 [5 of 6 alive], 105, 110, 126 % of control"
same,T/C,"dose: 12.5 mg/kg/injection, schedule: Q01DX005 (ip), vehicle: water, evaluated on day 40",108 % of control
same,T/C,"dose: 12.5 mg/kg/injection, schedule: Q01DX005 (ip), vehicle: water, evaluated on day 45",103 % of control
same,T/C,"dose: 12.5 mg/kg/injection, schedule: Q01DX005 (ip), vehicle: water, evaluated on day 50",110 % of control
same,T/C,"dose: 25.0 mg/kg/injection, schedule: Q01DX005 (ip), vehicle: distilled water + Tween-80","105, 107 (2×), 132 % of control"
same,T/C,"dose: 25.0 mg/kg/injection, schedule: Q01DX005 (ip), vehicle: water, evaluated on day 20",124 % of control
same,T/C,"dose: 25.0 mg/kg/injection, schedule: Q01DX005 (ip), vehicle: water, evaluated on day 30","91, 100, 102 [4 of 5 alive], 104 (3×), 105 (2×), 106 (2×), 107 (2×), 108, 109 (2×), 110 (3×), 111 (4×), 112, 114 (3×), 114 [5 of 6 alive], 115 (3×), 116 (3×), 118, 119 (2×), 120, 121, 123 (2×), 137 % of control"
same,T/C,"dose: 25.0 mg/kg/injection, schedule: Q01DX005 (ip), vehicle: water, evaluated on day 35","106, 119, 139, 141 % of control"
same,T/C,"dose: 25.0 mg/kg/injection, schedule: Q01DX005 (ip), vehicle: water, evaluated on day 40",112 % of control
same,T/C,"dose: 25.0 mg/kg/injection, schedule: Q01DX005 (ip), vehicle: water, evaluated on day 45",107 % of control
same,T/C,"dose: 25.0 mg/kg/injection, schedule: Q01DX005 (ip), vehicle: water, evaluated on day 50",125 % of control
same,T/C,"dose: 27.0 mg/kg/injection, schedule: Q01DX005 (ip), vehicle: saline",130 % of control
same,T/C,"dose: 31.3 mg/kg/injection, schedule: Q01DX005 (ip), vehicle: saline",140 % of control
same,T/C,"dose: 32.4 mg/kg/injection, schedule: Q01DX005 (ip), vehicle: saline",132 % of control
same,T/C,"dose: 36.0 mg/kg/injection, schedule: Q01DX005 (ip), vehicle: water",135 % of control
same,T/C,"dose: 45.0 mg/kg/injection, schedule: Q01DX005 (ip), vehicle: saline",142 % of control
same,T/C,"dose: 45.0 mg/kg/injection, schedule: Q01DX005 (ip), vehicle: water",126 % of control [7 of 8 alive]
same,T/C,"dose: 50.0 mg/kg/injection, schedule: Q01DX005 (ip), vehicle: distilled water + Tween-80","97, 120, 127, 128 % of control"
same,T/C,"dose: 50.0 mg/kg/injection, schedule: Q01DX005 (ip), vehicle: saline with Tween-80",131 % of control
same,T/C,"dose: 50.0 mg/kg/injection, schedule: Q01DX005 (ip), vehicle: water, evaluated on day 20",145 % of control [4 of 5 alive]
same,T/C,"dose: 50.0 mg/kg/injection, schedule: Q01DX005 (ip), vehicle: water, evaluated on day 30","106 (2×), 114 (2×), 120, 121, 122, 123 (2×), 125 (2×), 127, 128, 129 (4×), 130, 130 [4 of 6 alive], 131, 132 (2×), 133, 135 (5×), 136 (2×), 137, 138 (2×), 139 (2×), 141, 143, 144, 145, 148, 152 % of control"
same,T/C,"dose: 50.0 mg/kg/injection, schedule: Q01DX005 (ip), vehicle: water, evaluated on day 35",142 (2×) and 171 % of control
same,T/C,"dose: 50.0 mg/kg/injection, schedule: Q01DX005 (ip), vehicle: water, evaluated on day 40",141 % of control
same,T/C,"dose: 50.0 mg/kg/injection, schedule: Q01DX005 (ip), vehicle: water, evaluated on day 45",116 % of control
same,T/C,"dose: 50.0 mg/kg/injection, schedule: Q01DX005 (ip), vehicle: water, evaluated on day 50",131 % of control
same,T/C,"dose: 54.0 mg/kg/injection, schedule: Q01DX005 (ip), vehicle: saline",138 % of control
same,T/C,"dose: 60.0 mg/kg/injection, schedule: Q01DX005 (ip), vehicle: water",141 % of control
same,T/C,"dose: 64.8 mg/kg/injection, schedule: Q04DX003 (ip), vehicle: saline",146 % of control
same,T/C,"dose: 75.0 mg/kg/injection, schedule: Q01DX005 (ip), vehicle: saline",144 % of control [7 of 8 alive]
same,survivor count,"dose: 90.0 mg/kg/injection, schedule: Q01DX005 (ip), vehicle: saline",8 of 8
same,T/C,"dose: 90.0 mg/kg/injection, schedule: Q01DX005 (ip), vehicle: water",138 % of control
same,T/C,[1],"99, 149, 169 % of control"
same,survivor count,[1],3 of 5
same,survivor count,"dose: 100.0 mg/kg/injection, schedule: Q01DX005 (ip), vehicle: saline with Tween-80",3 of 6
same,T/C,"dose: 100.0 mg/kg/injection, schedule: Q01DX005 (ip), vehicle: water, evaluated on day 20",157 % of control
same,T/C,"dose: 100.0 mg/kg/injection, schedule: Q01DX005 (ip), vehicle: water, evaluated on day 30","89 [5 of 6 alive], 96, 140, 141 [4 of 5 alive], 147, 150, 151, 154, 154 [4 of 5 alive], 155 [5 of 6 alive], 156, 157, 157 [5 of 6 alive], 160, 161, 161 [5 of 6 alive], 163 (3×), 163 [5 of 6 alive], 168 (2×), 169, 174 (3×), 178, 182, 188 % of control"
same,T/C,"dose: 100.0 mg/kg/injection, schedule: Q01DX005 (ip), vehicle: water, evaluated on day 35",185 % of control
same,T/C,"dose: 100.0 mg/kg/injection, schedule: Q01DX005 (ip), vehicle: water, evaluated on day 40",93 % of control
same,T/C,"dose: 100.0 mg/kg/injection, schedule: Q01DX005 (ip), vehicle: water, evaluated on day 45",155 and 159 % of control [6 of 8 alive]
same,T/C,"dose: 100.0 mg/kg/injection, schedule: Q01DX005 (ip), vehicle: water, evaluated on day 50",162 % of control
same,survivor count,"dose: 100.0 mg/kg/injection, schedule: Q01DX005 (ip), vehicle: water","0 of 6, 1 of 6, 3 of 6 (2×), 4 of 6 (2×), 4 of 5, 5 of 6 (2×), 5 of 5"
same,T/C,"dose: 100.0 mg/kg/injection, schedule: Q01DX009 (ip), vehicle: water",135 % of control
same,T/C,"dose: 108.0 mg/kg/injection, schedule: Q04DX003 (ip), vehicle: saline",138 % of control
same,survivor count,"dose: 125.0 mg/kg/injection, schedule: Q01DX005 (ip), vehicle: saline",3 of 3
same,survivor count,"dose: 125.0 mg/kg/injection, schedule: Q01DX005 (ip), vehicle: water",3 of 8
same,survivor count,"dose: 150.0 mg/kg/injection, schedule: Q01DX005 (ip), vehicle: saline",8 of 8
same,survivor count,"dose: 150.0 mg/kg/injection, schedule: Q01DX005 (ip), vehicle: water",0 of 8
same,survivor count,"dose: 200.0 mg/kg/injection, schedule: Q01DX005 (ip), vehicle: distilled water + Tween-80",1 of 5 and 5 of 6
same,survivor count,[2],3 of 6
same,survivor count,"dose: 200.0 mg/kg/injection, schedule: Q01DX005 (ip), vehicle: water",1 of 5
same,T/C,"dose: 300.0 mg/kg/injection, schedule: Q04DX003 (ip), vehicle: saline",149 % of control
CCCC(CC)(C(=O)Nc1ccc2nc(C)cc(N)c2c1)C(=O)Nc1ccc2nc(C)cc(N)c2c1,survivor count,[2],3 of 5
CCOC1=NC(C)C(C)N1 (centres undefined),survivor count,"dose: 200.0 mg/kg/injection, schedule: Q01DX001 (ip), vehicle: saline",0 of 6
same,survivor count,"dose: 400.0 mg/kg/injection, schedule: Q01DX001 (ip), vehicle: saline",0 of 6
N#CCC1CCCC1=O (centres undefined),survivor count,"dose: 200.0 mg/kg/injection, schedule: Q01DX009 (ip), vehicle: saline with Tween-80",5 of 6
Cc1ccn2ccnc2c1,survivor count,"dose: 200.0 mg/kg/injection, schedule: Q01DX009 (ip), vehicle: acetone",0 of 6

# — PubChem BioAssay AID330 (DTP/NCI, 2004)
